The experiment concerns the target NiV-MY G (Nipah virus, Malaysia strain (NiV-MY)) (UniProt Q9IH62). The experiment is described as follows: ELISA, G protein coated.

Amino acid sequences for entries named in this document (tags omitted). Residues count along the entry.
UniProt Q9IH62, residues 71-602: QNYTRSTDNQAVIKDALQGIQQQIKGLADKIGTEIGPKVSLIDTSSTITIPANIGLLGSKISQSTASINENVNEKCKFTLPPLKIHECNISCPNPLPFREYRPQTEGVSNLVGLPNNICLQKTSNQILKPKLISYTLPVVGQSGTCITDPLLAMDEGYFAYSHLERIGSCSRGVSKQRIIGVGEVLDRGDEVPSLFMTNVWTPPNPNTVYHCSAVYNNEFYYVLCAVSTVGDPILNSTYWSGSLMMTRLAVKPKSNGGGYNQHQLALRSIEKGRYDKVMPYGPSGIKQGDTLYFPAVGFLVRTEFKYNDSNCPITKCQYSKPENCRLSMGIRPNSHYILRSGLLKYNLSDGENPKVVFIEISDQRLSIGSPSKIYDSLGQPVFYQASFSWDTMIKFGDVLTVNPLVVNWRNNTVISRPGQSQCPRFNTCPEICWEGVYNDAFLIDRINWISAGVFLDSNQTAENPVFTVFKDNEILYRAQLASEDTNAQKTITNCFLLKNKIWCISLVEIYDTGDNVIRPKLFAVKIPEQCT

This is an account of results in patent US20240158480A1 (ACADEMY OF MILITARY MEDICAL SCIENCE PLA, published 2024).

Results are given in words; binding and its absence hold for the method and conditions named. Some binding calls cover weakened binding; strength is not graded here.

B1: 1D11 (antibody, V domains shown)
VH: EVQLVESGGGLVQPGGSLRLSCAASGFTFSSYDMSWVRQAPGKGLEWVSSISSVTSYISYADSVKGRFTISRDNAKNSLSLQMNSLKTEDTAVYYCTTENWNFDFWGQGVLVTVSS
VL: DVVMTQSPLSLATTPGQPASISCRSSQSLVHSNGNTYLSWYQQKPGQPPRLLIYEVSNRDSGVPDRFSGSGAGTDFTLKISRVEAEDVGVYYCGQGTHWPPFTFGPGTKLDIK
notes: also called antibody 1D11; monoclonal antibody 1D11; copies: 2 + 2
For B1, the binding entry is recorded as “binds”.

B2: 2B6 (antibody, V domains shown)
VH: QVQLVQSGAEVKKPGASVKLSCKASGYTFTSFYINWVRQAPGQVLEWMGWINPSNGDTGYAQKFQGRVTMSRDTSTSTAYMELSSLRSEDTAVYYCTRETVGSGTFDCWGQGVLVTVSS
VL: DIVMTQTPLSLSVTLGEPASISCRSSQSLVYSAGKTYLDWYLQKPGQSPQLLIYLVSKRASGVPDKFSGSGSGTDFTLKISRVEAEDVGVYYCMQALRSPLTFGGGTKVELK
notes: also called antibody 2B6; monoclonal antibody 2B6; copies: 2 + 2
As for B2, the binding result is “binds”.
